For 96 compounds, viability results are on record in PubChem BioAssay AID1117359 (Southern Research Institute, 2015).

Broadly, the viability is a read-out of living cells in per cent, often relative to untreated cells.

The structures appear in SMILES notation. Out of some 1,500 compounds screened, about 460 (31%) were called active.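 Rule for the calls: active = viability at or below 80% at any tested concentration, marking the compound as toxic; inactive = the rest.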 Only a part is listed here, and it is no random draw. Measured potencies and affinities stand elsewhere.

This assay in a line: THP-1 cell cytotoxicity, dose response, cytotoxicity control for Vif-APOBEC3G degradation inhibitor project, THP-1 cells (AID 1117359). The conditions noted are these: THP-1 viability, CellTiter-Glo luminescence, 72 h; at 40 µM (top of the series). On the technique in general: ATP-based viability assays read luminescence as a measure of living cells.
In the case of `COc1cc(OC)c2c(O)c3c(c(-c4c5c(c(O)c6c(OC)cc(OC)cc46)CO[C@@H](C)[C@H]5O)c2c1)[C@H](O)[C@H](C)OC3`, the viability is inactive: 115%.
For `Cc1ccc(C=C2C(Cl)=C(Cl)C(Cl)=C2Cl)cc1` the value was inactive: 91%; for `Cc1nc(C)c2c(c1C(F)(F)F)-c1ccccc1C2(F)F`, inactive: 98.1%; for `CC1(C)C2CCC1(CS(=O)(=O)Nc1cccc(S(N)(=O)=O)c1)C(=O)C2` (stereo unspecified), inactive: 87.3%.
For `Cn1nccc1NC(=O)Nc1ccc(Cl)cc1` the value was inactive: 100%; for `CN(C(=S)Nc1cccnc1)c1ccc(O)cc1`, inactive: 113%; for `Cc1cc(O)c(-c2cc(O)c(C)cc2O)cc1O`, inactive: 109%.
For `O=C(Nc1ccc2nc(-c3ccco3)c(-c3ccco3)nc2c1)NC1CC1` the value was inactive: 92.4%; for `O=C(O)c1ccc(S(=O)(=O)c2ccc([N+](=O)[O-])cc2[N+](=O)[O-])cc1`, inactive: 97.5%.
Take `c1coc(-c2nc3nc4ccccc4n3nc2-c2ccco2)c1`: the viability was inactive: 81.1%.
On to `CN1CCN(C(CNC(=O)c2ccc(Br)o2)c2ccc(F)cc2)CC1` (stereo unspecified), for which the viability was inactive: 96.6%.
The result for `COc1ccc(Cl)cc1NC(=O)CCS(=O)(=O)c1ccc(Br)cc1` reads inactive: 92.8%.
With `CN(C)c1cc(Cl)c2nonc2c1N`, the viability was inactive: 110%.
With `CC(C)NC(=O)c1cc(-c2ccco2)nn1-c1ccc(Cl)cc1`, the viability was inactive: 97.9%.
Regarding `O=C(N/N=C/C=C/c1ccco1)c1cccs1`, the viability was inactive: 97.2%.
In the case of `CC(C)(C)c1ccc(C(=O)Oc2ccc3c(c2)OCC3=O)cc1`, the viability is inactive: 122%.
Consider `O=C(O)/C(=C/c1ccco1)NC(=O)c1ccccc1`, for which the viability is inactive: 89.8%.
Turning to `COc1ccc(CNS(=O)(=O)c2cc(Br)cc3c2N(C(C)=O)C(C)C3)cc1` (stereo unspecified), the viability is inactive: 94.4%.
`O=c1oc2c3c4c(cc2s1)CCCN4CCC3`: the viability was inactive: 92.3%.
For `COc1ccc(/C=N/NC(=O)Cn2cnc3c2c(=O)n(C)c(=O)n3C)c(OC)c1OC` the value was inactive: 102%; for `CC(OC(=O)c1ccc([N+](=O)[O-])o1)C(=O)NC1CCCCC1C` (stereo unspecified), inactive: 106%.
On to `CC(/C=C/c1ccco1)=N\NC(=O)c1cccnc1`, for which the viability was inactive: 84.8%.
With `S=c1[nH]nc(-c2cccnc2)n1/N=C/C=C/c1ccco1`, the viability was inactive: 97.7%.
For `Cc1ccc2c(c1)C1C=CCC1C(C(=O)O)N2` (stereo unspecified) the value was inactive: 104%.
Consider `CCOC(=O)N1CCC(NC(=O)c2ccc(OC)c(CN3CC(=O)N4CCCC4C3=O)c2)CC1` (stereo unspecified), for which the viability was inactive: 114%.
`O=C(O)CC(Cn1cnnn1)c1ccccc1` (stereo unspecified): the viability was inactive: 110%.
The result for `COC(=O)c1c(C)[nH]c(C=O)c1-c1ccccc1` reads inactive: 90.8%; that for `CC1CCN(S(=O)(=O)c2ccc(C(=O)NCc3ccc4c(c3)OCO4)cc2)CC1`, inactive: 89.1%; that for `CCN(CC)c1ccc(NC2CC(=O)N(CCc3ccc(OC)cc3)C2=O)cc1` (stereo unspecified), inactive: 111%.
`N=C(c1cccc([N+](=O)[O-])c1)N1CCCCCC1`: the viability is inactive: 109%.
Regarding `NC1=NC(=O)/C(=C\c2ccco2)S1`, the viability was inactive: 90%.
In the case of `Cc1sc2nc(C)n(/N=C/c3ccccc3O)c(=O)c2c1C`, the viability was inactive: 105%.
As to `Cc1ccc(NC(=O)CN(C)C(=O)c2cc(-c3ccco3)nc3ccccc23)cc1`, the viability was inactive: 84.3%.
The result for `Nc1c(C(=O)NC2CC2)sc2nc3c(c(-c4ccco4)c12)CC/C3=C/c1ccco1` reads inactive: 100%.
For `COc1ccc(NC(=O)O/N=C/c2ccccc2Cl)cc1`, the viability is inactive: 102%.
For `O=C(Cc1cccs1)N/N=C/C=C/c1ccco1` the value was inactive: 124%; for `O=C(CSc1ncnc2ccccc12)Nc1cccc(S(=O)(=O)N2CCOCC2)c1`, inactive: 98.2%; for `CC(=O)c1ccc(-c2nnc(CCC(=O)N(C)Cc3c(C)nc4ccccn34)o2)s1`, inactive: 104%.
As to `CC(C)OCCCNC(=O)c1cccs1`, the viability is inactive: 110%.
With `CC(=O)c1ccc(N2CCN(C(=O)c3ccc4c(c3)OCO4)CC2)cc1`, the viability is inactive: 86.4%.
Regarding `O=C1CC(SC(=S)C2CCCC2=O)C(=O)N1` (stereo unspecified), the viability is inactive: 102%.
Consider `CC(=O)c1ccc(NC(=O)c2ccc3nc(-c4ccco4)c(-c4ccco4)nc3c2)cc1`, for which the viability was inactive: 100%.
As to `CN(C)C(=O)c1nc2ccc(Cl)cn2c1CN1CCCC(OCc2ccccc2)C1` (stereo unspecified), the viability is inactive: 81.6%.
As for `CC(C)(C)NC(=O)CSc1nnc(-c2ccccn2)n1Cc1ccccc1`, the viability was inactive: 98.6%.
For `CC(=O)Nc1nnc(SCC(=O)N2CCCc3ccccc32)s1` the value was inactive: 106%; for `Cc1c(C(=O)N2CCCCC2)nnn1-c1nonc1N`, inactive: 93.2%.
Consider `CC(Cc1c[nH]c2ccccc12)C(=O)NCc1ccco1` (stereo unspecified), for which the viability was inactive: 93.4%.
The result for `CCOc1ccc(NC(=O)CCS(=O)(=O)c2ccc(Br)cc2)cc1` reads inactive: 98%; that for `CCOC(=O)c1c(N)sc(=S)c2c1CCC2`, inactive: 80.8%.
With `CCOc1ccc(NC(=O)c2ccccc2NS(C)(=O)=O)cc1`, the viability is inactive: 83.8%.
With `O=C1NC(=Nc2ccc(F)cc2)SC1Cc1ccc(F)cc1` (stereo unspecified), the viability is inactive: 91.6%.
For `O=C(O)C1Nc2c(Cl)cc(Cl)c(Cl)c2C2C=CCC12` (stereo unspecified) the value was inactive: 95.9%.
As to `O=C(CN1C(=O)c2ccccc2C1=O)NCC(=O)OCC(=O)c1cccc([N+](=O)[O-])c1`, the viability is inactive: 91.2%.
As for `CC(=O)c1ccc(N2C(=NC(=O)C3CCCO3)SC3CS(=O)(=O)CC32)cc1` (stereo unspecified), the viability is inactive: 102%.
As to `CC(=O)Nc1ccc(NC(=O)C(C)OC(=O)CC23CC4CC(CC(Br)(C4)C2)C3)cc1` (stereo unspecified), the viability was inactive: 94.2%.
The result for `COc1ccc(C)cc1NC(=O)COC(=O)CCC(=O)c1cccs1` reads inactive: 106%; that for `Oc1c(CN2CCOCC2)cc(CN2CCOCC2)c(O)c1O`, inactive: 94%; that for `Cc1cc(-c2csc(NC(=O)c3ccc(C#N)cc3)n2)c(C)n1Cc1ccco1`, inactive: 106%.
With `Cc1c(Br)c(O)c(Br)c2sc(=O)oc12`, the viability is inactive: 101%.
With `Cc1ccc(NC(=O)CN2C(=O)N/C(=C/c3ccco3)C2=O)cc1`, the viability was inactive: 106%.
With `CCCCn1c(N)c(N(CCOC)C(=O)c2cc(-c3ccco3)nc3ccccc23)c(=O)[nH]c1=O`, the viability was inactive: 101%.
As for `CC1OC(OCC2OC(Oc3c(-c4ccc(O)cc4)oc4cc(O)cc(O)c4c3=O)C(O)C(O)C2O)C(O)C(O)C1O` (stereo unspecified), the viability is inactive: 104%.
As for `Clc1ccccc1CSc1nnc(-c2ccco2)c(-c2ccco2)n1`, the viability was inactive: 94.3%.
For `COc1ccc(NC(=O)c2ccc(S(=O)(=O)N3CCOCC3)o2)cc1`, the viability was inactive: 115%.
Take `O=C(Nc1nnc(C2CCCO2)s1)c1cccs1` (stereo unspecified): the viability is inactive: 87.6%.
Regarding `CCC(NC(=O)Nc1ccc(O)cc1)(C(F)(F)F)C(F)(F)F`, the viability was inactive: 96%.
`O=c1c(N=Nc2ccc(O)cc2)c(-c2ccccc2)[nH]n1-c1ccc([N+](=O)[O-])cc1`: the viability was inactive: 86%.
The result for `COc1ccccc1NCCC(=O)OCC(=O)NCc1ccco1` reads inactive: 108%; that for `COc1ccc2c(c1OC)C(=O)OC2Nc1nc(-c2cc3cc([N+](=O)[O-])ccc3oc2=O)cs1` (stereo unspecified), inactive: 104%.
As for `Cc1nc2c(=O)[nH]c(=S)[nH]c2[nH]c1=O`, the viability was inactive: 110%.
Turning to `Cc1cc2c(N)cccc2nn1`, the viability is inactive: 97.5%.
Consider `Oc1cc2c(cc1O)[C@H]1c3ccc(O)c(O)c3OC[C@@]1(O)C2`, for which the viability was inactive: 103%.
Turning to `CN(C(=O)COc1ncnc2sccc12)c1ccccc1`, the viability is inactive: 107%.
`CC(=O)NN1C(=O)/C(=C/c2ccc(Br)o2)SC1=S`: the viability was inactive: 91.9%.
As to `COc1ccc(C(=O)N/N=C/c2cccnc2)cc1`, the viability was inactive: 91.2%.
On to `Cc1cc(C)nc(N/N=C/C2=C(N3CCOCC3)C(=C\c3ccc(Cl)cc3)/CC2)n1`, for which the viability is inactive: 86.4%.
Turning to `Cc1ccc(NC(=O)C(C)NC(=O)OCc2ccccc2)cc1C` (stereo unspecified), the viability was inactive: 101%.
For `CN(C)c1ccc(N2C(=O)CC(Nc3ccc(N4CCOCC4)cc3)C2=O)cc1` (stereo unspecified) the value was inactive: 102%.
Take `Cc1ccc(C)n1Cc1ccc(C(=O)O)cc1`: the viability was inactive: 98.5%.
With `O=C(O)c1ccc2c(c1)[C@@H]1C=CC[C@@H]1[C@H](c1ccccn1)N2`, the viability was inactive: 110%.
On to `CSc1nc(NCCCO)c2c3c(sc2n1)CN(C)CC3`, for which the viability is inactive: 97.1%.
For `Cc1nn(-c2ccccn2)c2c1C(=O)C(Br)CC2` (stereo unspecified) the value was inactive: 83.4%; for `CC1=C/C(=N\OS(=O)(=O)c2ccccc2)C=CC1=O`, inactive: 102%.
In the case of `CCCC1=NN2C(=N)/C(=C\c3ccc(SCc4ccco4)o3)C(=O)N=C2S1`, the viability is inactive: 85.6%.
Turning to `CCN(CC(=O)Nc1c(F)cccc1F)C(=O)c1cccc(-n2cccc2)c1`, the viability is inactive: 107%.
As for `Cc1ccc(/C=C/C(=O)Nc2ccc([N+](=O)[O-])c(NC(=O)/C=C/c3ccc(C)o3)c2)o1`, the viability is inactive: 102%.
The result for `COc1cccc(NS(=O)(=O)c2ccc3c(c2)C2C=CCC2C(c2ccc(C(=O)O)cc2)N3)c1` (stereo unspecified) reads inactive: 95.3%.
With `O=C(Cn1cncn1)N/N=C/c1ccccc1Cl`, the viability is inactive: 99.5%.
In the case of `CCN(CC)c1ccc(NC(=O)CCS(=O)(=O)c2ccc(Br)cc2)c(C)c1`, the viability is inactive: 91.6%.
As for `Cc1nc(C)c(C(=O)OCC(=O)Nc2ccc(C)c(C)c2)s1`, the viability is inactive: 91.1%.
Take `N#Cc1c(-c2ccco2)cc(-c2ccccc2)[nH]c1=O`: the viability is inactive: 89.4%.
With `Cc1sc(NC(=O)CSc2nnnn2C(C)C)c(C#N)c1C`, the viability was inactive: 95.3%.
For `CC(C)(C)C(=O)O/N=C(\N)c1c(Cl)cccc1Cl`, the viability is inactive: 108%.
On to `COc1ccc(S(=O)(=O)N2CCN(C(=O)c3cc(C)on3)CC2)cc1`, for which the viability was inactive: 93.9%.
For the compound `CC1CCCC(NC(=O)C2CCC(CNc3c(N4CCCC4)c(=O)c3=O)CC2)C1C` (stereo unspecified), the viability is inactive: 93.1%.
Turning to `O=C1CSC(c2cccnc2)N1Cc1cccnc1` (stereo unspecified), the viability is inactive: 109%.
